Earlier results, collected in paper PMC12019622 (World Journal of Experimental Medicine, 2025).

Tested on: blood-brain barrier (BBB)
Settings: cited from earlier work

In the case of `COc1cc2c(cc1OC)C(=O)C(CC1CCN(Cc3ccccc3)CC1)C2` (stereo not shown) [donepezil], the “permeability across the blood-brain barrier (BBB)” value is given as 12 ×10⁻⁶ cm/s.
